# Measured values published in PubChem BioAssay AID1671190 (National Center for Advancing Translational Sciences (NCATS), 2021).
# The chains behind the UniProt entries cited, without tags or fusion partners. Where a name states a change or a piece, a line headed by the entry shows the natural chain unless it says otherwise.
# UniProt P18054: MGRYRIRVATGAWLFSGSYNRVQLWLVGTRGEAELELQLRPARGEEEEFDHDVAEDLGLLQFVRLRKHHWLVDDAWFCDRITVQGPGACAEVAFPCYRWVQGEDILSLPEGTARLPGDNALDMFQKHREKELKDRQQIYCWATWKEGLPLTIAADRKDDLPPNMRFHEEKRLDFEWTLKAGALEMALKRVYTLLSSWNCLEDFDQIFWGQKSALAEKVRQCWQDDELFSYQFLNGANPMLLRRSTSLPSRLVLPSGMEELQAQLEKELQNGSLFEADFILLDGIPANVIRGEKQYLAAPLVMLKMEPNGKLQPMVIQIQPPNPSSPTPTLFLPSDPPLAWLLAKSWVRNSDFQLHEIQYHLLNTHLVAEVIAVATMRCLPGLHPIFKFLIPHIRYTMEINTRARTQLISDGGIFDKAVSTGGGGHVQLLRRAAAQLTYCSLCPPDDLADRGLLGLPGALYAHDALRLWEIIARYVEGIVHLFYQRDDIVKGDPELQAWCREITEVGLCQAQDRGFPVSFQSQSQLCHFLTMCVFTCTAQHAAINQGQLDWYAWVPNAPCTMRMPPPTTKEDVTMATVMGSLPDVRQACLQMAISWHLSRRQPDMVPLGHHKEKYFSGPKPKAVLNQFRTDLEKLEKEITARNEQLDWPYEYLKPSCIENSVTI
# Where “and” joins values, the source holds several entries; their conditions need not be identical. Identical values can stand only once. The whole screen tested about 580,000 compounds, of which about 6,100 (1.1%) were called active. The shares of active, inactive and inconclusive entries below differ from those in the screen. Calls come from the whole dose curve; as a rule, active = well fitted inhibition curve with a large enough effect; inconclusive = small, poorly fitted or top-dose-only effect, or another doubt; inactive = no such curve, though single readings can be large or run the other way. Potencies beside an inconclusive call are fits to weak or partial responses and may not hold up.
# Target: Polyunsaturated fatty acid lipoxygenase ALOX12 (Homo sapiens) (UniProt P18054)
# Assay: Primary qHTS assay for inhibitors of human arachidonate 12S-lipoxygenase (ALOX12): Round 2
# Conditions: purified 12hLO, xylenol orange hydroperoxide absorbance; activity change, negative = inhibition: at 108 µM (top of the series) unless noted
# Summary of the method: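 Purified human 12hLO (150 nM final) in 25 mM Hepes, 0.01% Triton X-100, pH 7.0 was preincubated 15 min at room temperature with compound. Then 40 uM arachidonic acid was added, 30 min. Hydroperoxide was read by Fe-XO absorbance ratio 573/405 nm.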
# % is set by controls: 0 for no effect and ±100 for the full control effect; potency is the fitted concentration of half-maximal effect.
Structure (SMILES),Potency,"activity change, negative = inhibition"
CC(C)(C)c1ccc(/C=N/Nc2ccc(S(N)(=O)=O)cc2[N+](=O)[O-])cc1,"inconclusive: 141 µM [inhibitor, single point]",
Cc1cc(C(=O)N[C@H](C)c2onc(-c3ccc(F)cc3)c2C(=O)O)c(C)o1,"inconclusive: 89.1 µM [inhibitor, partial curve]",
CC(C)=CC(=O)NC(C)c1cc(C)sc1C (configuration not stated),,inactive: -2.34%
CN(Cc1nc2ccccc2[nH]1)C(=O)C1CCC(=O)N(CCc2cccc(F)c2)C1 (configuration not stated),,inactive: 4.96%
CN(C)CCNc1oc(-c2ccc(F)cc2)nc1S(=O)(=O)c1ccc2c(c1)OCCO2,active: 31.6 µM,
COc1ccc(Cl)cc1N1C(=O)/C(=C/c2sccc2C)N=C1SCC(=O)NC1CC1,"inconclusive: 3.16 µM [inhibitor, full curve, poor fit]",
Cc1cc(C)c(NS(=O)(=O)c2ccc(NC(=O)/C=C/C(=O)O)cc2)c(C)c1,"inconclusive: 44.7 µM [inhibitor, partial curve, poor fit]",
CCC(=O)N1CCc2cc(Br)cc(S(=O)(=O)CCC(=O)N3CCN(c4ccc(OC)cc4)CC3)c21,"inconclusive: 89.1 µM [inhibitor, partial curve, poor fit]",
Cn1cccc1C(=O)OCc1cc(Cl)cc2c1OCOC2,"inconclusive: 112 µM [inhibitor, single point]",
CCOc1ccc2oc(=O)cc(CN3CCN(Cc4ccc(F)cc4)CC3)c2c1,"inactive and inconclusive: 50.1 µM [inhibitor, partial curve, poor fit]",
O=C(c1cccs1)N1CCN(C(=O)c2cccs2)C1=S,"inconclusive: 56.2 µM [inhibitor, partial curve, poor fit]",
COC(=O)C1=CN(Cc2cccs2)C=C(C(=O)OC)C1c1ccc(C(F)(F)F)cc1,"inconclusive: 50.1 µM [inhibitor, single point]",
CCCCCC(=O)Nc1cc(S(=O)(=O)O)cc2cc(S(=O)(=O)O)cc(O)c12,"inconclusive: 0.891 µM [inhibitor, full curve, poor fit]",
Cc1ccc(F)cc1NC(=O)CSc1nnc(CNC(=O)c2ccco2)n1C,,inactive: -8.52%
COc1ccccc1NC(=O)C(=O)NCc1ccccc1,,inactive: -7.75%
CC(C)CC(C)N(C)C(=O)NCc1cccc(N(C)C)c1 (configuration not stated),"inconclusive: 50.1 µM [inhibitor, partial curve, poor fit]",
COc1ccc(OC)c2sc(N3CCN(C(=O)c4ccc([N+](=O)[O-])s4)CC3)nc12,,inactive: -0.351%
O=C(O)c1nc(N2CCCC2)ncc1Cl,"inconclusive: 50.1 µM [inhibitor, partial curve, poor fit]",
CCOC(=O)N1CCC2(CC1)C(C#N)=C(N)Oc1c2sc2nc(C)cc(C)c12,,inactive: -28.8%
Cc1nc(SC2=CS(=O)(=O)c3ccccc32)oc1C,"inconclusive: 5.62 µM [inhibitor, full curve, poor fit]",
NC(=O)COC(=O)c1cccc2c1-c1ccccc1C2=O,,inactive: -6.74%

Structure (SMILES),Potency,"activity change, negative = inhibition"
O=C(N[C@@H]1C/C=C\C[C@H](CC(=O)N(CCO)Cc2ccccc2)C(=O)N[C@@H](Cc2c[nH]c3ccccc23)COC1=O)OCC1c2ccccc2-c2ccccc21,"inconclusive: 141 µM [inhibitor, partial curve, poor fit]",
CC(C)CNS(=O)(=O)c1ccc(CCC(=O)N2CCN(c3ccccc3)CC2)cc1,,inactive: -2.86%
C(=C\c1ccccc1)/CN1CCN(C(CCc2ccccc2)c2nnnn2C2CCCCC2)CC1 (configuration not stated),"inconclusive: 79.4 µM [inhibitor, single point]",
COCCN(CCOC)Cc1coc(-c2cccc(F)c2)n1,,inactive: -3.43%
Cc1ccc(C)c(S(=O)(=O)N2CCN(C(=O)CCc3nc4ccccc4c(=O)[nH]3)CC2)c1,"inconclusive: 2 µM [inhibitor, full curve, poor fit]",
COc1ccccc1OCCCCN1CCC(C)CC1,"inconclusive: 0.708 µM [inhibitor, full curve, poor fit]",
Cc1c(NC(=O)c2cc(-n3cnnc3)ccc2Cl)cccc1-c1nc2ccccc2o1,,inactive: 48.7%
COc1ccc(-c2cnc3c(NC=O)cc(-c4ccc(F)cc4)cn23)cc1OC,"inconclusive: 79.4 µM [inhibitor, partial curve, poor fit]",
C=CCN1C(=O)c2cccc3c(Br)ccc(c23)C1=O,"inconclusive: 100 µM [inhibitor, single point]",
O=C(CN(Cc1ccco1)C1CC1)NC1CCCC1,,inactive: -13.5%
Cc1ccc2c(C)c(C(=O)N(Cc3cccc(Br)c3)C3CCS(=O)(=O)C3)oc2c1 (configuration not stated),"inconclusive: 31.6 µM [inhibitor, partial curve, poor fit]",
OCCNc1nc(Nc2ccccc2Cl)nc(N2CCCC2)n1,"inconclusive: 44.7 µM [inhibitor, partial curve, poor fit]",
COc1ccc(N2CC(C(=O)Nc3ccc(S(=O)(=O)N4CCCCC4)cc3)CC2=O)cc1 (configuration not stated),"inconclusive: 70.8 µM [inhibitor, partial curve, poor fit]",
COc1ccc(Cn2c(O)c(C=Nc3ccc(C)cc3)c3ccccc3c2=O)cc1,,inactive: -16.9%
CC(C)NCc1ccc(-c2ccc(C(C)O)cc2)o1 (configuration not stated),,inactive: -24.8%
O=c1n(Cc2ccc(Cl)cc2)c2ccccc2c2nc(-c3ccccc3)nn12,,inactive: 0%
CCc1ccc(NC(=O)Cc2csc(COc3cccc(C)c3)n2)cc1,"inconclusive: 39.8 µM [inhibitor, partial curve, poor fit]",
O=C1C(Cl)=C(N2CCOCC2)C(=O)N1c1ccc(Br)cc1,"inconclusive: 50.1 µM [inhibitor, partial curve, poor fit]",
Cn1nc(C(=O)Nc2nc(-c3cc(F)ccc3F)cs2)c2ccccc2c1=O,"inconclusive: 56.2 µM [inhibitor, partial curve, poor fit]",
O=C1C2C3C=CC(C4CC34)C2C(=O)N1/N=C/c1ccc(-c2ccc([N+](=O)[O-])cc2)o1 (configuration not stated),,inactive: -23.5%
Cc1cc(SCC(=O)c2ccc3c(c2)OCCO3)nc2ccccc12,active: 15.8 µM,
